In paper PMC11379720:
These are yes or no findings as the source states them, for the method shown. In cells and extracts the contact can be indirect.

Chains of the proteins cited; added tags and fusions are not shown.
UniProt Q96PU5: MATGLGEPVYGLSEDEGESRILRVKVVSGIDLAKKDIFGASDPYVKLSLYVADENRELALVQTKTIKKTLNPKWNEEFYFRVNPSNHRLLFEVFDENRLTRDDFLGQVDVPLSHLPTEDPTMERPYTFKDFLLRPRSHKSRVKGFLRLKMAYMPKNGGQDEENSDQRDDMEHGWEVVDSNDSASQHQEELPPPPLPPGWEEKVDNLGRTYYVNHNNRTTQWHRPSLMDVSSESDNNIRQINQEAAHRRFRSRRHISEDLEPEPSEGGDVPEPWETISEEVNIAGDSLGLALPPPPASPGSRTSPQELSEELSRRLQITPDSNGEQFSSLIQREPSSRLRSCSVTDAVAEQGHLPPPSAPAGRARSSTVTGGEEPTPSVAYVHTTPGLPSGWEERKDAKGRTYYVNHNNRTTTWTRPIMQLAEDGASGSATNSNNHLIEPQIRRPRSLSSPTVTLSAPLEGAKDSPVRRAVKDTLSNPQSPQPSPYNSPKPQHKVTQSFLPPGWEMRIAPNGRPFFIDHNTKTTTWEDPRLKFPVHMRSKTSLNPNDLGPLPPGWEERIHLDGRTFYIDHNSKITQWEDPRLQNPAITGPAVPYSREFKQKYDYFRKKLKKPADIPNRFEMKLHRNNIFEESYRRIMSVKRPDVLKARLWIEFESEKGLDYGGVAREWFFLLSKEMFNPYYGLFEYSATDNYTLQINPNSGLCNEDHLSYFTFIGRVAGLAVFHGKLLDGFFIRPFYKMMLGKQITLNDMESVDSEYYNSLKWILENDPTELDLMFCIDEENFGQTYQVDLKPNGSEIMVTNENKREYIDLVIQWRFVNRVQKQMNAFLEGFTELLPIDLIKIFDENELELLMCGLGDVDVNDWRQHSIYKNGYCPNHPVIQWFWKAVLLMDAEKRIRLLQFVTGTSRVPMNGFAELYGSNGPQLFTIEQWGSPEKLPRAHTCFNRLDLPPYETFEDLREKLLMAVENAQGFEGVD

Biological target: NEDD4L (human (endogenous in Ishikawa)) (UniProt Q96PU5)
Assay: co-IP; lysates of Ishikawa cells infected with Lv-CTL or Lv-RAB17, immunoprecipitated with the indicated primary antibody and immunoblotted as indicated

B1: RAB17 overexpressed from lentivirus (Lv-RAB17) (protein, UniProt Q9H0T7 1-212)
chain: MAQAHRTPQPRAAPSQPRVFKLVLLGSGSVGKSSLALRYVKNDFKSILPTVGCAFFTKVVDVGATSLKLEIWDTAGQEKYHSVCHLYFRGANAALLVYDITRKDSFLKAQQWLKDLEEELHPGEVLVMLVGNKTDLSQEREVTFQEGKEFADSQKLLFMETSAKLNHQVSEVFNTVAQELLQRSDEEGQALRGDAAVALNKGPARQAKCCAH
- binding: no binding
